Results are given in words; binding and its absence hold for the method and conditions named. Some entries that bind do so weakly or less than the wild type. For some assays here: Sequences can lack the tags named with a protein.

Our source for the binding values is patent EP4480965A1, “TRANSFERRIN RECEPTOR-BINDING MOLECULES, CONJUGATES THEREOF AND THEIR USES TO PREVENT OR TREAT CNS DISEASES” (Vect-Horus, priority 2023, dated 2024).

Experiment [1] has as its target human transferrin receptor fused to EGFP, expressed on CHO cells (human) (UniProt P02786). Put plainly: flow cytometry, CHO-hTfR-EGFP cells.
The target of experiment [2] is murine TfR expressed by murine neuroblastoma Neuro-2a cells (mouse) (UniProt Q62351). Briefly: competition with C5-Alexa680 on living Neuro-2a cells, flow cytometry.
The target of experiment [3] is human transferrin receptor fused to EGFP, expressed on CHO cells (human) (UniProt P02786). Put plainly: flow cytometry, CHO-hTfR-EGFP cells (Figure 15A legend).
Experiment [4] shares this target. Briefly: flow cytometry, CHO-hTfR-GFP cells, anti-6His.

B1: VHH D (H3) (VHH)
VHH: EVQLVESGGGEVQPGGSLKLSCVASGTDFSINFVRWYRQRPGKQREWVAGFTANGDTNYPDSMKGRFTISRDNAKNTVYLQINSLKSEDTAVYYCYMLDNWGQGTQVTVSS
Consider B1, for which the binding entry in experiment [1] is “binds”.

B2: C5-siSOD1m-5'VP (protein)
VHH: EVQLVESGGGVVQPGGSLKLSCVASGTDFSINFIRWYRQAPGKQREFVAGFTATGNTNYADSMKGRFTISRDNTKNAVYLQIDSLKPEDTAVYYCYMLDKWGQGTQVTVSSAAAEQKLISEEDLNGAAHHHHHHGS
modifications: siSOD1m-5'VP siRNA (SEQ ID NOs 465/466) linked by a stable linker to the tag
With B2, the binding entry in experiment [2] was “binds”.

B3: VHH B-siGFPst1 bioconjugate (protein)
VHH: EVQLVESGGGVVQPGGSLRLSCAASGEIFSINFMRWYRQAPGKQREWVAGFTRDGSTNYPDSAKGRFTISRDNAKNTVYLQIDSLKPEDTAVYYCYMLDTWGQGTQVTVSSAAAEQKLISEEDLNGAAHHHHHHGS
modifications: siGFPst1 siRNA linked to the Gln of the C-terminal Q-tag
As to B3, the binding result in experiment [3] and in experiment [4] was “binds” throughout.

B4: B8-MALAT1-ASO (protein)
VHH: EVQLVESGGGVVQPGGSLRLSCAASGEIFSINFMRWYRQAPGKQREWVAGFTRDGSTNYPDSAKGRFTISRDNAKNTVYLQIDSLKPEDTAVYYCYMLDTWGQGTQVTVSSAAAEQKLISEEDLNGAAHHHHHHGS
modifications: MALAT1 antisense oligonucleotide (SEQ ID NO 405) linked to the tag
In the case of B4, the binding result in experiment [2] is “binds”.
